Screening data, single-dose tests

The chains behind the UniProt entries cited, without tags or fusion partners.
UniProt I6X8D2, whole entry: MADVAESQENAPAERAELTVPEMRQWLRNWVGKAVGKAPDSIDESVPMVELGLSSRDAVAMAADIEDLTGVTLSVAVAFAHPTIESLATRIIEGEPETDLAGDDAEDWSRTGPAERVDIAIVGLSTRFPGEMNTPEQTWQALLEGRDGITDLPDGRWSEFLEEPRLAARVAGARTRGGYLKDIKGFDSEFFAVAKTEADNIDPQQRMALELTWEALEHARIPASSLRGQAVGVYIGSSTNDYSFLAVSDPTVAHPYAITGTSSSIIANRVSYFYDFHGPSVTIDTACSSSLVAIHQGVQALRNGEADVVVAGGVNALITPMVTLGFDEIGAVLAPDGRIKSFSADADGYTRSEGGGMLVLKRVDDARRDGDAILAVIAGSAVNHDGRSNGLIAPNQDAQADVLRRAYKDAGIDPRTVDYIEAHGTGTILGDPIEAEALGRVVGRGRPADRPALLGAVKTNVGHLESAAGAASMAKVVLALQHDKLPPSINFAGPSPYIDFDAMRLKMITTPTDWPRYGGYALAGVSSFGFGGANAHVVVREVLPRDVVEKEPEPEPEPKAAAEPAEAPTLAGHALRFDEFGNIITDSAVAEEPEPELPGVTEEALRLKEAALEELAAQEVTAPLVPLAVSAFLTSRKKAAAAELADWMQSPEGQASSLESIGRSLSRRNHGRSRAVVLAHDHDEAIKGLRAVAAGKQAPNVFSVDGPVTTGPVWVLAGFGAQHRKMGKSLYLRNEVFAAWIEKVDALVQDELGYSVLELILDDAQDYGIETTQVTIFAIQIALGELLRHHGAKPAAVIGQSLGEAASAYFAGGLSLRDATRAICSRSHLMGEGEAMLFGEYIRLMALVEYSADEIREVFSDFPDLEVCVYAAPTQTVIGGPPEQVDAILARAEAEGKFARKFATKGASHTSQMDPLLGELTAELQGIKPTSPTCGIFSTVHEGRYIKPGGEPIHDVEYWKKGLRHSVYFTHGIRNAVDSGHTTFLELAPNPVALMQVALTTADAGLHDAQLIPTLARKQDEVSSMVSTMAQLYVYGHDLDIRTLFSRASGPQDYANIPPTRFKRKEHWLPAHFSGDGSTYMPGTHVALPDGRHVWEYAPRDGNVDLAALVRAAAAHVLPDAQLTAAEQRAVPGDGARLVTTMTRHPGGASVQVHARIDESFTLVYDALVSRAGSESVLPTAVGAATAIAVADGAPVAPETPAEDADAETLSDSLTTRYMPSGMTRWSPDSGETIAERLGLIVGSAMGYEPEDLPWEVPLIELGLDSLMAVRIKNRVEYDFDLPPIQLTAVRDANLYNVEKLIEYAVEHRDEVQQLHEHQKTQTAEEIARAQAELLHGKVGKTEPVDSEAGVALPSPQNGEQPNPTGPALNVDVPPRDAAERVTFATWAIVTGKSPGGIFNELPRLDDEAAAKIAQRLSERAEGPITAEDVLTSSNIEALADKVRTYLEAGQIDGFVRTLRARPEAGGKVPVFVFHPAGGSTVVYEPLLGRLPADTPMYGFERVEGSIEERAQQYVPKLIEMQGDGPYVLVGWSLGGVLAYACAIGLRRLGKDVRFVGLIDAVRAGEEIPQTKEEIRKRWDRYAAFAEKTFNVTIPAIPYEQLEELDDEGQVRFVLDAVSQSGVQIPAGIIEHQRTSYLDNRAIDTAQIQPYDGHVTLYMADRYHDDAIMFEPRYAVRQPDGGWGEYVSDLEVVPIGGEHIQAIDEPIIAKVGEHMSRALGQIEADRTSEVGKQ

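Polyketide synthase Pks13, Mycobacterium tuberculosis (UniProt I6X8D2). Enzyme assay of the thioesterase domain of polyketide synthase 13; the read-out is not stated. Compounds at 30 µM. Higher reads as stronger inhibition (inferred from which compounds were picked for retests). About 67,000 compounds were tested under these conditions; 0.46% (about 300) showed 50% or more at least once.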

Values are the deposited “Percent Effect”, in %. How 0% and 100% were set is not recorded. Most values in the screen are low, and negative values occur. This is an unselected part of the compounds tested.

For O=C(NCc1ccco1)[C@H]1C[C@H]2OCC[C@H]2N(C(=O)c2ccco2)C1 the result was -8.429%. Result for c1cc(CNc2ncc(-c3cnccn3)c([C@@H]3CCCO3)n2)ccn1 was 2.602%. Result for Cc1nc(CN2C(=O)CC[C@@H]3[C@H]2CCN3C(=O)C2CCCO2)cs1 (some centres unmarked) was 4.632%. With CC(C)CC1SCC(=O)Nc2c1cnn2-c1ccccc1F (centres unmarked) the screen gave -10.73%. COCC(=O)N1CCCC(c2cc(C(F)F)n3ncnc3n2)C1 (centres unmarked) gave 3.624%. COc1ccc(CNC(=O)NCCCNS(C)(=O)=O)cc1OC read -14.71%. Result for Cc1c(-c2cc(C(F)(F)F)nc(N3CCC(N)CC3)n2)cnn1C was 6.713%. Result for CCN(CC)CCNC(=O)c1cnc(C(C)(C)C)s1 was 2.687%.

For CCc1nccn1-c1cccc(C2CCCN2S(=O)(=O)N(C)C)n1 (centres unmarked) the result was -14.54%. CC(C)n1nnnc1-c1ccc(NC(=O)CC(F)(F)F)cc1F read -5.408%. With Cc1ccc(C(=O)N2CCCC(CNS(=O)(=O)C(C)C)C2)cc1 (centres unmarked) the screen gave 5.504%. With Cc1ccc(N2CC[C@H]3[C@@H]2CCC(=O)N3CCN2CCOCC2)nn1 the screen gave -27.51%. CCOCC1CN(C(=O)c2cscn2)Cc2cnn(CC3CC3)c21 (centres unmarked) read 9.569%. Cc1cnc(N2CCCC3(CCN(Cc4csc(C)n4)C3=O)C2)nc1 (centres unmarked) gave -9.28%. CC(=O)N1CCn2c(C(=O)N(C)C)cnc2C1 read -37.58%. Result for CCc1c(O)nc(SCC(=O)N(CC)CC)n(C(C)CC)c1=O (centres unmarked) was -7.071%.

COc1cc(CNc2ccc(Cl)cc2)ccc1OCC(=O)O read 1.596%. Cc1cnn(CCC(=O)N2CCCC(c3ccn[nH]3)C2)c1 (centres unmarked) gave 2.403%. With O=C1NC2(CCN(C(=O)c3ccnnc3)CC2)CC1c1ccccc1 (centres unmarked) the screen gave 24.12%. Cc1cnn(CC2CCCN2C(=O)c2cc(Cl)ccc2F)c1 (centres unmarked) gave -14.49%. CCc1nc(CC2CN(c3ncnc4sc(C)c(C)c34)CCO2)no1 (centres unmarked) gave -35.65%. For Cc1nc(C(=O)N(C)C2CC(=O)N(Cc3ccccc3)C2=O)cs1 (centres unmarked) the result was -11.2%. Result for CN(C)[C@@H]1CN(Cc2ccccn2)C[C@H]1c1cn(C)c2ccccc12 was 8.971%. For CN(C)C(Cn1ccnc1-c1nccn1C)c1ccccc1Cl (centres unmarked) the result was 0.8932%.

With c1cnc(N2CCC3(CCN(Cc4cccnc4)CC3)CC2)nc1 the screen gave 6.746%. With Cc1cc(=O)n2nc(Oc3ccc(F)c(F)c3)sc2n1 the screen gave -0.2553%. With Cc1cc(C)n2nc(CC(=O)N3CC[C@H]4NCCC[C@]4(CO)C3)nc2n1 the screen gave -1.893%. CC(C)n1c2ccccc2c2c1cc(C(=O)NCCO)n2C(=O)N(C)C gave 32.16%. For COc1ccc(N(C(=O)c2cnc(C)cn2)C(C)C)cc1F the result was -19.16%.

2 of the entries, repeated:

SMILES,Percent Effect
COCC(=O)N1CCCC(c2cc(C(F)F)n3ncnc3n2)C1 (centres unmarked),3.624
CCOCC1CN(C(=O)c2cscn2)Cc2cnn(CC3CC3)c21 (centres unmarked),9.569

The values are deposited in ChEMBL (CHEMBL3988442, “University of Dundee, Small-Polar-MMV Screening Library” (2021)).